Laboratory results: PubChem BioAssay AID2685 (National Center for Advancing Translational Sciences (NCATS), 2010)
Some of the results follow. These are further read-outs of the screen, such as a control signal, another cell line or another target. No call is given for them. Most of these compounds were active or inconclusive in the main read-out, so they are no random draw. Words in brackets tell the shape of the fitted curve; partial curves, single points and poor fits give uncertain potencies.

Experiment: qHTS Assay for Lipid Storage Modulators in Drosophila S3 Cells;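 for cell number change: cells counted by Cell Tracker Red CMTPX staining in the red channel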
Conditions: BODIPY lipid droplet fluorescence, 18-24 h; for cell number change: measured here: cell count max response, cells fed with added oleic acid
Procedure, shortened: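 Drosophila S3 cells loaded with oleic acid (400 uM, as added) and compounds at several concentrations; lipid droplets imaged by 488-nm laser-scanning cytometry, 500–530 nm intensity and object ratio to cell channel. Percent activity normalized to 20 uM Triacsin C.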

[1] = measured here: lipid fluorescence (Fed channel) AC50, cells fed with added oleic acid
[2] = measured here: cell number channel AC50, cells fed with added oleic acid

SMILES	cell number change [%]	AC50 [1]	AC50 [2]
O=Nc1c(O)n(Cc2cccc(C(F)(F)F)c2)c2ccccc12	-28	10.3 µM [falling, partial curve, poor fit]	
COc1cc(C(C)=O)ccc1OCC(=O)Nc1ccccc1N1CCCC1	-32.8	8.2 µM [falling, partial curve]	10.3 µM [falling, partial curve]
COc1cc2c(c(OC)c1OC)-c1c(cc3c(c1OC)OCO3)C[C@H](C)[C@@](C)(O)C2	16.5	29.1 µM [rising, single point]	
COc1ccc(C(=O)n2nc(C)cc2Nc2ccccc2)cc1	38.7		
COc1cc(CCC(=O)OCC(=O)Nc2c(F)cccc2F)cc(OC)c1OC	2.94	0.00517 µM [falling, full curve, poor fit]	
CCCCN(C)CCCNC(=O)c1cc(Nc2ccc(OC)c(OC)c2)nc2ccccc12	18.3		0.0517 µM [rising, full curve, poor fit]
Cc1cc(=S)c2ccccc2[nH]1	17	4.11 µM [rising, full curve]	
Cn1c(-c2ccc(C=O)s2)nc2ccccc21	-14.7	0.651 µM [falling, full curve]	0.116 µM [falling, full curve]
COc1ccc(NC(=S)NC(=O)/C=C/c2ccc(F)cc2)cc1			6.51 µM [rising, single point]
CC1=CSC2=NC(=O)/C(=C\c3cccn3-c3ccc([N+](=O)[O-])cc3)C(=N)N12	-48.6	6.51 µM [falling, partial curve, poor fit]	18.4 µM [falling, partial curve, poor fit]
C=CCNC(=O)Nc1ccc(OCC)cc1		0.0411 µM [falling, partial curve, poor fit]	
CCn1c(C(O)c2cc(OC)c(OC)c(OC)c2)nc2ccccc21 (stereo unspecified)	-12.6	14.6 µM [falling, partial curve, poor fit]	
COc1ccc(Cl)cc1NC(=O)CCn1cnc2ccccc2c1=O	-12.7	1.3 µM [rising, full curve, poor fit]	
ClC1(Cl)CC1CSc1ncn[nH]1 (stereo unspecified)		2.31 µM [falling, partial curve]	
Cc1nc(N2CCCCC2)sc1C(=O)c1ccc(Cl)c([N+](=O)[O-])c1		6.51 µM [falling, partial curve, poor fit]	
CCCNC(=S)Nc1ccc(Nc2ccccc2)cc1	-38.4	29.1 µM [falling, single point]	23.1 µM [falling, single point]

Copied from the list.
For cell number change [%], `CCn1c(C(O)c2cc(OC)c(OC)c(OC)c2)nc2ccccc21` (stereo unspecified) has the entry -12.6
For AC50 [1], `Cc1nc(N2CCCCC2)sc1C(=O)c1ccc(Cl)c([N+](=O)[O-])c1` has the entry 6.51 µM [falling, partial curve, poor fit]
